PubChem BioAssay AID1259308, NCATS | 2017

Screen: 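Knock-downs that increase output of a recombinant reporter protein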 (primary screen)
System: human HEK293 embryonic kidney cells stably expressing firefly luciferase (HEK-CMV-Luc2-Hygro)
Reagent: single siRNA against human genes, 0.8 pmol siRNA per well
Time to read-out: 72 h
Read-out: 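Luciferase light (ONE-Glo) measured on one replicate plate set and viability (CellTiter-Glo) on the other, scaled to a negative control siRNA, with robust z-scores and luciferase per cell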
Reading the numbers: total luciferase, z-score and total luciferase, % of control: higher = more reporter protein produced; luciferase per cell, z-score: higher = more reporter output per viable cell; viable cells, % of control: higher = more viable cells
Rule for the call: 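An siRNA counts as active if its total luciferase robust z-score exceeds 3; genes with two or more such siRNAs out of three were retested with fresh siRNAs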
Meaning of the calls: active = raised luciferase; inactive = no rise
The whole screen tested about 59,000 reagents; shown is a part drawn at random. Over the whole deposit, about 1,510 (2.6%) were called active. 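Calls use total luciferase alone and ignore viability, so some active siRNAs may act by altering cell number.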 The numbers tell different reagents against one gene apart. No sequences are given here.

no.	gene symbol	siRNA no.	total luciferase, z-score	total luciferase, % of control	luciferase per cell, z-score	viable cells, % of control	outcome
1	TSC22D1 (TSC22 domain family member 1)	1	0.629	94.4	0.717	87.3	inactive
2	TSC22D1 (TSC22 domain family member 1)	2	-1.18	58.5	-0.314	71	inactive
3	TSC22D1 (TSC22 domain family member 1)	3	0.481	91.5	1.41	70.5	inactive
4	TTC9C (tetratricopeptide repeat domain 9C)	1	0.249	86.8	-0.32	106	inactive
5	TTC9C (tetratricopeptide repeat domain 9C)	2	0.457	91	1.5	68.4	inactive
6	TTC9C (tetratricopeptide repeat domain 9C)	3	-0.297	76	-0.84	106	inactive
7	GPSM3 (G protein signaling modulator 3)	1	0.947	101	1.63	73.4	inactive
8	GPSM3 (G protein signaling modulator 3)	2	-1.92	43.7	-2.84	103	inactive
9	GPSM3 (G protein signaling modulator 3)	3	0.0262	82.4	-0.174	96.4	inactive
10	MATN3 (matrilin 3)	1	0.53	92.4	1.23	74.7	inactive
11	MATN3 (matrilin 3)	2	-0.57	70.5	-0.423	88.1	inactive
12	MATN3 (matrilin 3)	3	0.122	84.3	0.0109	93.9	inactive
13	NXPH4 (neurexophilin 4)	1	2.96	141	4.64	46.4	inactive
14	NXPH4 (neurexophilin 4)	2	-1.87	44.6	-1.95	83.3	inactive
15	NXPH4 (neurexophilin 4)	3	-1.7	48.2	-1.05	70.9	inactive
16	LMOD2 (leiomodin 2)	1	0.612	94.1	-0.0314	106	inactive
17	LMOD2 (leiomodin 2)	2	-0.866	64.7	-1.26	101	inactive
18	LMOD2 (leiomodin 2)	3	-1.25	57.1	-1.47	93.9	inactive
19	PBX2 (PBX homeobox 2)	1	-0.0448	81	1.1	67.8	inactive
20	PBX2 (PBX homeobox 2)	2	-0.665	68.7	-0.145	79.7	inactive
21	PBX2 (PBX homeobox 2)	3	-0.562	70.7	-0.63	93.3	inactive
22	MAPK11 (mitogen-activated protein kinase 11)	1	-0.263	76.7	-0.572	99.6	inactive
23	MAPK11 (mitogen-activated protein kinase 11)	2	3.17	145	2.21	90.5	active
24	MAPK11 (mitogen-activated protein kinase 11)	3	0.502	91.9	0.331	94.1	inactive
25	SSX2IP (SSX family member 2 interacting protein)	1	-0.519	71.6	-0.758	97.6	inactive
26	SSX2IP (SSX family member 2 interacting protein)	2	-0.223	77.4	-0.212	91.5	inactive
27	SSX2IP (SSX family member 2 interacting protein)	3	-0.82	65.6	-1.18	100	inactive
28	FLJ46838 (retired record)	1	0.458	91	0.976	78.6	inactive
29	FLJ46838 (retired record)	2	0.377	89.4	0.954	77.7	inactive
30	FLJ46838 (retired record)	3	-0.75	67	-0.591	87.4	inactive
31	CHRNA6 (cholinergic receptor nicotinic alpha 6 subunit)	1	0.499	91.8	0.552	88.7	inactive
32	CHRNA6 (cholinergic receptor nicotinic alpha 6 subunit)	2	-0.512	71.7	-0.674	95.7	inactive
33	CHRNA6 (cholinergic receptor nicotinic alpha 6 subunit)	3	-0.839	65.2	-1.56	110	inactive
34	GLI3 (GLI family zinc finger 3)	1	0.0119	82.1	-0.202	96.8	inactive
35	GLI3 (GLI family zinc finger 3)	2	-1.37	54.7	-0.93	78.1	inactive
36	GLI3 (GLI family zinc finger 3)	3	2.1	124	1.76	87	inactive
37	ELMOD1 (ELMO domain containing 1)	1	1.08	103	0.857	92.1	inactive
38	ELMOD1 (ELMO domain containing 1)	2	1.01	102	1.07	86	inactive
39	ELMOD1 (ELMO domain containing 1)	3	-0.927	63.5	0.281	65.8	inactive
40	ELMOD1 (ELMO domain containing 1)	4	-0.309	75.7	0.0869	82.7	inactive
41	ELMOD1 (ELMO domain containing 1)	5	0.465	91.1	0.69	84.9	inactive
42	ELMOD1 (ELMO domain containing 1)	6	0.622	94.3	0.526	91.7	inactive
43	KLRG1 (killer cell lectin like receptor G1)	1	-0.954	62.9	-0.925	89.7	inactive
44	KLRG1 (killer cell lectin like receptor G1)	2	-0.575	70.4	-0.851	98.5	inactive
45	KLRG1 (killer cell lectin like receptor G1)	3	0.194	85.7	-0.223	102	inactive
46	OR10X1 (olfactory receptor family 10 subfamily X member 1)	1	1.92	120	0.888	106	inactive
47	OR10X1 (olfactory receptor family 10 subfamily X member 1)	2	-0.217	77.6	-0.806	107	inactive
48	OR10X1 (olfactory receptor family 10 subfamily X member 1)	3	1.6	114	0.431	114	inactive
49	COPS6 (COP9 signalosome subunit 6)	1	0.828	98.4	1.3	78	inactive
50	COPS6 (COP9 signalosome subunit 6)	2	-0.179	78.3	-0.464	98.9	inactive
51	COPS6 (COP9 signalosome subunit 6)	3	-0.822	65.5	-0.544	84.5	inactive
52	PEG10 (paternally expressed 10)	1	-0.229	77.3	-0.86	108	inactive
53	PEG10 (paternally expressed 10)	2	0.276	87.4	-0.0312	98.4	inactive
54	PEG10 (paternally expressed 10)	3	-1.21	57.8	-2.17	114	inactive
55	TRMT13 (tRNA methyltransferase 13)	1	-0.629	69.4	-1.26	108	inactive
56	TRMT13 (tRNA methyltransferase 13)	2	2.73	136	1.41	105	inactive
57	TRMT13 (tRNA methyltransferase 13)	3	-0.377	74.4	-1.26	116	inactive

Records listed above with an active call, once more:
gene symbol	siRNA no.	total luciferase, z-score	total luciferase, % of control	luciferase per cell, z-score	viable cells, % of control	outcome
MAPK11 (mitogen-activated protein kinase 11)	2	3.17	145	2.21	90.5	active
